# ± gives the standard deviation of the averaged measurements. The list shows a part of the results.
# The chains behind the UniProt entries cited, without tags or fusion partners. Where a name states a change or a piece, a line headed by the entry shows the natural chain unless it says otherwise.
# UniProt Q7KZF4: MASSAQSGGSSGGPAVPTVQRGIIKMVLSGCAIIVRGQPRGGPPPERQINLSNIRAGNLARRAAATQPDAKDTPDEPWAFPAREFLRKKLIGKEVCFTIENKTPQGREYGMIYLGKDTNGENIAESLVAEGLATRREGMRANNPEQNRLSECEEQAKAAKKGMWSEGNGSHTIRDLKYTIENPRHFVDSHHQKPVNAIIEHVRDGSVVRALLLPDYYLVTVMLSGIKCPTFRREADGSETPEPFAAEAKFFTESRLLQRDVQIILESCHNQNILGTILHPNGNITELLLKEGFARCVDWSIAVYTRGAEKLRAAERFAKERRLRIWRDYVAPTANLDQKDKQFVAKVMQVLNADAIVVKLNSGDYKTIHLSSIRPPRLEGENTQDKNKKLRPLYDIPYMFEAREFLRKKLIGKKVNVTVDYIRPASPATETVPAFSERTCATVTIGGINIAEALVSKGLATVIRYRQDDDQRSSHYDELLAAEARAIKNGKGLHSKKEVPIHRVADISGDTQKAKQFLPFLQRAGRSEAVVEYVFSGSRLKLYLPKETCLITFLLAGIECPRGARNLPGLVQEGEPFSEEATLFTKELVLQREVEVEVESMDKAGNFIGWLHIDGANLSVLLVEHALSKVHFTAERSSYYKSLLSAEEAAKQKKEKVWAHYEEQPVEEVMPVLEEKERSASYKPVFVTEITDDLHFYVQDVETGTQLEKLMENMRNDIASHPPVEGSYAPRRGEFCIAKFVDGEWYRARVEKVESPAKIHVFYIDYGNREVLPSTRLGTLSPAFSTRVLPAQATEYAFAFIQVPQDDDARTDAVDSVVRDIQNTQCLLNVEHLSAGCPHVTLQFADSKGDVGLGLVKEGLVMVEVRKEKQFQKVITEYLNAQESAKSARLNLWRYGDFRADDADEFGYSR
# UniProt Q7Z4H7: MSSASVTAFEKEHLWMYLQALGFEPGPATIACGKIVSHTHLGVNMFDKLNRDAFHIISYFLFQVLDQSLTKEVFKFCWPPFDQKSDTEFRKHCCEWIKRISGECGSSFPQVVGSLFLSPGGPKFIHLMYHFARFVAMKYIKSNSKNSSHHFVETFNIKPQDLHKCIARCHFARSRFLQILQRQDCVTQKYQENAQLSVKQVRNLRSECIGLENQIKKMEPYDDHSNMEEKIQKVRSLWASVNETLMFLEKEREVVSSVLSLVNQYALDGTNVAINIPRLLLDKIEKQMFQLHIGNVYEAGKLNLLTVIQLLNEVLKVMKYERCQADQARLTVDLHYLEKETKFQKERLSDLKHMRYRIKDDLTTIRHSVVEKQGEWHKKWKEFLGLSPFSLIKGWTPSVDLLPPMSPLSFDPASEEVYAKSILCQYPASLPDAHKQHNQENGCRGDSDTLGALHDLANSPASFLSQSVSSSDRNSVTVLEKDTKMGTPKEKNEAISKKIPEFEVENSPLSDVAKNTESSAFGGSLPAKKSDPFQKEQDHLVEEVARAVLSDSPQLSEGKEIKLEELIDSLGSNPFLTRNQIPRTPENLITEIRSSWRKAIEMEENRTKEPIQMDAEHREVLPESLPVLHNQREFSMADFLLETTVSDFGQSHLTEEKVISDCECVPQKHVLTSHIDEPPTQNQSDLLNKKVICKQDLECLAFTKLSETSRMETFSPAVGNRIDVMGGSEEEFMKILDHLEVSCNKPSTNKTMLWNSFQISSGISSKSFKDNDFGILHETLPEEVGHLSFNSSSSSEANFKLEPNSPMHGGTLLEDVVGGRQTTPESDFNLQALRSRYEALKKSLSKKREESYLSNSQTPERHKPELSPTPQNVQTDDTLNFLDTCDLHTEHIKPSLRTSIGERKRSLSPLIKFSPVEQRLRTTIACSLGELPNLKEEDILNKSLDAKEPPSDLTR
# UniProt Q6UWP2: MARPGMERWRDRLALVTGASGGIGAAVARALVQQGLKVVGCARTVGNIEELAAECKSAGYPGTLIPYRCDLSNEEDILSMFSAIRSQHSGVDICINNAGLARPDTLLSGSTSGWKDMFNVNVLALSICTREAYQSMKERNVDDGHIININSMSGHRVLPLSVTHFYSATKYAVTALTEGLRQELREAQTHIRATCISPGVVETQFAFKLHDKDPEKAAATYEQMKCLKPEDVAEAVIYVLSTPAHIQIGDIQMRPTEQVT
# UniProt Q6PII3: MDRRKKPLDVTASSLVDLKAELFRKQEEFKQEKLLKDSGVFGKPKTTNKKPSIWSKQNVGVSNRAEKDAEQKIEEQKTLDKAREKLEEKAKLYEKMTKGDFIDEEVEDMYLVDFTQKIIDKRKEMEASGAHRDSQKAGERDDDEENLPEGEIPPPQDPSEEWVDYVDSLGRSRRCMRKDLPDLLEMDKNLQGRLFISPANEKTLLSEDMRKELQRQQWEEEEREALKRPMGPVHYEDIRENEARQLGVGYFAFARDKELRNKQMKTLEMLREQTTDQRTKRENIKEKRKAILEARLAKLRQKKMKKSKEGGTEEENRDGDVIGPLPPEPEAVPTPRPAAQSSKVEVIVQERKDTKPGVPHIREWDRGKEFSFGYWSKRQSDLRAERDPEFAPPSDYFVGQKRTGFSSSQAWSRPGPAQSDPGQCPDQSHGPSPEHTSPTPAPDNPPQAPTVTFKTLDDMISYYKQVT
# Compound: Nc1nc2c(ncn2[C@@H]2O[C@H](COP(=O)(O)OP(=O)(O)OP(=O)(O)O)[C@@H](O)[C@H]2O)c(=O)[nH]1 [guanosine triphosphate]
# Assay: NP40-soluble protein abundance relative to vehicle (solubility fold change) (ratio); higher = more soluble protein in presence of GTP
# Experimental: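 Solubility proteome profiling in Jurkat crude lysate. Lysate was treated with Mg-GTP (0.1-10 mM) for 10 min at room temperature and 3 min at 37 °C, then solubilised with 0.8% NP40 and benzonase, followed by ultracentrifugation. Proteins were quantified by TMT10 LC-MS/MS; the value is the NP40-soluble abundance relative to the NP40-processed vehicle, from 3 independent experiments.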
Target,NP40-soluble protein abundance (concentration: 0.1mM),NP40-soluble protein abundance (concentration: 0.5mM),NP40-soluble protein abundance (concentration: 1mM),NP40-soluble protein abundance (concentration: 2mM),NP40-soluble protein abundance (concentration: 4mM),NP40-soluble protein abundance (concentration: 6mM),NP40-soluble protein abundance (concentration: 8mM),NP40-soluble protein abundance (concentration: 10mM)
SND1 (UniProt Q7KZF4),1.01 ± 0.026,1.03 ± 0.023,0.996 ± 0.02,1.04 ± 0.038,1.12 ± 0.043,1.18 ± 0.033,1.2 ± 0.063,1.2 ± 0.097
TTC27 (UniProt Q6P3X3),1.03 ± 0.025,0.999 ± 0.038,0.9425 ± 0.0021,0.971 ± 0.049,0.97 ± 0.051,0.908 ± 0.011,0.946 ± 0.011,0.893 ± 0.034
Q5VY60 and related entries (UniProt Q7Z4H7),1.01 ± 0.024,0.986 ± 0.037,0.976 ± 0.021,0.99 ± 0.023,0.975 ± 0.025,0.986 ± 0.044,1.02 ± 0.043,0.983 ± 0.028
DHRS11 (UniProt Q6UWP2),0.967 ± 0.1,0.986 ± 0.087,0.964 ± 0.08,0.95 ± 0.034,0.909 ± 0.079,0.995 ± 0.14,0.912 ± 0.098,0.997 ± 0.03
UniProt Q6PII3 and related entries,0.938 ± 0.051,0.976 ± 0.084,0.957 ± 0.045,0.928 ± 0.063,0.878 ± 0.083,0.974 ± 0.082,0.977 ± 0.075,1 ± 0.064

# From the supplement of paper PMC6411743
